According to the supplement of paper PMC8616043:
Counter-ions that a name gives are not always drawn. The list shows a part of the results. Single values are uncertain here, since repeats match poorly.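 Human U-2 OS cells stably expressing a GFP sensor with a nuclear import signal and classical export signal were transfected to produce PR50, a 50-repeat proline–arginine dipeptide from ALS/FTD gene C9ORF72. Nuclear-minus-cytoplasm GFP was scaled from DMSO (low) to PR-only (high), scored against plate test wells; strongly negative scores marked PR-reversing hits.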

The molecules below were run on U-2 OS NCT-C biosensor cells expressing PR50 (assay: Z-score of normalised NCT-C biosensor translocation index in PR50-expressing cells; higher = more nuclear biosensor (more disrupted nuclear export)). Conditions: 3 µM; 24 h.
In the case of `CSc1ccc2c(c1)C(N1CCN(C)CC1)Cc1ccccc1S2` (stereo not given) [Methiothepin mesylate], the Z-score is reported as inactive: 0.541.
For `CC(C)(C)C(=O)Oc1ccc(S(=O)(=O)Nc2ccccc2C(=O)NCC(=O)O)cc1` [Sivelestat sodium salt hydrate], the Z-score was inactive: -0.819.
`COc1cc(O)c2c(c1)oc(=O)c1c3cc(O)c(O)cc3oc21` [Wedelolactone] was tested, and the Z-score was inactive: -0.515.
For `COC(=O)[C@H]1[C@H]2C[C@H]3c4[nH]c5ccccc5c4CCN3C[C@@H]2CC[C@@H]1O` [Corynanthine], the Z-score was inactive: 0.744.
In the case of `COC(c1ccccc1)(c1ccccc1)[C@H](Oc1nc(C)cc(C)n1)C(=O)O` [Ambrisentan], the Z-score is reported as inactive: 0.00453.
For `CC(C)N(C[C@H]1O[C@@H](n2cnc3c(N)ncnc32)[C@H](O)[C@@H]1O)[C@H]1C[C@@H](CCc2nc3cc(C(C)(C)C)ccc3[nH]2)C1`, the Z-score was inactive: -0.772.
For `Cc1ccc(O)c(N=Nc2ccccc2)n1`, the Z-score was inactive: -0.652.
For `C[N+]1(C)[C@@H]2CC[C@H]1C[C@@H](OC(=O)C(O)c1ccccc1)C2` (stereo not given in full) [Homatropine Methylbromide], the Z-score was inactive: 0.381.
In the case of `CC(C)(C(=O)O)c1ccc(C(O)CCCN2CCC(C(O)(c3ccccc3)c3ccccc3)CC2)cc1` (stereo not given) [Fexofenadine hydrochloride], the Z-score is reported as inactive: 1.23.
In the case of `CC(C)(C(=O)O)c1ccc(C(O)CCCN2CCC(C(O)(c3ccccc3)c3ccccc3)CC2)cc1` (stereo not given) [Fexofenadine·HCl], the Z-score is reported as inactive: 1.03.
With `Fc1ccc(C(OCCCc2c[nH]cn2)c2ccc(F)cc2)cc1` the Z-score was inactive: -1.1.
For `CN(C)CCCN1c2ccccc2Sc2ccccc21` [Promazine hydrochloride], the Z-score was inactive: -0.828.
`Cc1cc(C(C)(C)C)c(O)c(C)c1CC1=NCCN1` [Oxymetazoline hydrochloride] was tested, and the Z-score was inactive: -0.152.
In the case of `Cc1cn(C2C=CC(CO)O2)c(=O)[nH]c1=O` (stereo not given) [2',3'-didehydro-3'- deoxythymidine], the Z-score is reported as inactive: 0.419.
In the case of `CC(CCc1ccccc1)NCC(O)c1ccc(O)c(C(N)=O)c1` (stereo not given) [Labetalol hydrochloride], the Z-score is reported as inactive: -0.0864.
For `CC(CCc1ccccc1)NCC(O)c1ccc(O)c(C(N)=O)c1` (stereo not given) [Labetalol·HCl], the Z-score was inactive: 0.404.
For `CCOC(=O)[C@H](CCc1ccccc1)N[C@@H](C)C(=O)N1Cc2ccccc2C[C@H]1C(=O)O` [Quinapril·HCl], the Z-score was inactive: -0.0629.
`Cc1oncc1C(=O)Nc1ccc(C(F)(F)F)cc1` [Leflunomide] was tested, and the Z-score was inactive: 0.0486.
For `O=C(O)c1cccnc1Nc1cccc(C(F)(F)F)c1` [Niflumic acid], the Z-score was inactive: 0.193.
In the case of `CN(C)/N=N/c1[nH]cnc1C(N)=O` [Dacarbazine], the Z-score is reported as inactive: 1.23.
`CCCCCC[C@@H]([C@@H](C)O)n1cnc2c(N)ncnc21` [Erythro-9-(2- hydroxy-3- nonyl)adenine HCl] was tested, and the Z-score was inactive: -0.153.
`CC1C(=O)OC2C(O)C34C5CC(C(C)(C)C)C36C(OC(=O)C6O)OC4(C(=O)O5)C12O` (stereo not given) [Ginkgolide B] was tested, and the Z-score was inactive: 0.24.
For `C[N+](C)(C)CCCCCC[N+](C)(C)C` [Hexamethonium bromide], the Z-score was inactive: -0.237.
For `C[N+](C)(C)CCCCCC[N+](C)(C)C` [Hexamethonium dichloride], the Z-score was inactive: 0.132.
For `O=c1cc(-c2ccc(O)cc2)oc2cc(O)c([C@@H]3O[C@H](CO)[C@@H](O)[C@H](O)[C@H]3O)c(O)c12` [Isovitexin], the Z-score was inactive: 0.0047.
For `C[C@@H]1O[C@@H](OC[C@H]2O[C@@H](Oc3cc(O)c4c(c3)O[C@H](c3ccc(O)cc3)CC4=O)[C@H](O)[C@@H](O)[C@@H]2O)[C@H](O)[C@H](O)[C@H]1O` [Narirutin], the Z-score was inactive: 0.151.
With `COC(=O)Nc1nc2cc(C(=O)c3ccccc3)ccc2[nH]1` [Mebendazole] the Z-score was inactive: -0.0259.
For `Nc1nc2c(c(=O)[nH]1)C[C@@H](CCc1ccc(C(=O)N[C@@H](CCC(=O)O)C(=O)O)cc1)CN2` [Lometrexol hydrate], the Z-score was inactive: 0.813.
`CC(C)c1ccc2oc3nc(N)c(C(=O)O)cc3c(=O)c2c1` [Amlexanox] was tested, and the Z-score was inactive: -0.0115.
In the case of `CN[C@@H]1[C@H](O[C@H]2[C@H](O[C@H]3[C@H](O)[C@@H](O)[C@H](N=C(N)N)[C@@H](O)[C@@H]3N=C(N)N)O[C@@H](C)[C@]2(O)C=O)O[C@@H](CO)[C@H](O)[C@H]1O` [Streptomycin Sulfate], the Z-score is reported as inactive: 0.206.
For `Nc1nc(Cl)nc2c1ncn2[C@H]1C[C@H](O)[C@@H](CO)O1` [Cladribine], the Z-score was inactive: 0.554.
With `CC1(C)CO[C@@H](CC(=O)O)CN1` the Z-score was inactive: -0.472.
In the case of `O=C([C@@H](Cc1cccc(C(F)(F)F)c1)NS(=O)(=O)c1cc(F)c2c(c1)CCNC2)N1CCCC1`, the Z-score is reported as inactive: -1.47.
For `COc1cccc2c1[C@@H]1CN(CCCCn3c(=O)[nH]c4c(sc5ncc(-c6ccccc6)nc54)c3=O)C[C@@H]1CO2` [Fiduxosin hydrochloride], the Z-score was inactive: -0.502.
With `COc1cccc2c1C(=O)c1c(O)c3c(c(O)c1C2=O)C[C@@](O)(C(=O)CO)C[C@@H]3O[C@H]1C[C@H](N)[C@H](O)[C@H](C)O1` [Doxorubicin·HCl] the Z-score was inactive: 7.69.
With `COc1cccc2c1C(=O)c1c(O)c3c(c(O)c1C2=O)C[C@@](O)(C(=O)CO)C[C@@H]3O[C@H]1C[C@H](N)[C@H](O)[C@H](C)O1` [Doxorubicin] the Z-score was inactive: -0.271.
With `CC1(C)S[C@@H]2[C@H](NC(=O)[C@H](N)c3ccc(O)cc3)C(=O)N2[C@H]1C(=O)O` [Amoxicillin] the Z-score was inactive: 0.0587.
For `Cc1nc(Nc2cnn(C3CCNCC3)c2)nc2c1N(C)C(=O)c1cc3ccccc3cc1N2C`, the Z-score was inactive: 0.754.
For `COc1cc(-c2oc3cc(O)ccc3c(=O)c2O)ccc1O` [Geraldol], the Z-score was inactive: -1.11.
With `OCCOCCN1CCN(C2=Nc3ccccc3Sc3ccccc32)CC1` [Quetiapine Fumarate] the Z-score was inactive: 0.313.
